# Reference: PubChem BioAssay AID2685 (National Center for Advancing Translational Sciences (NCATS), 2010)
# The other results are listed elsewhere or left out. Further columns of the screen follow, without active or inactive calls. The list favours compounds with an active or inconclusive main result. Potencies come from curve fits of mixed quality, noted in brackets.
# Test: qHTS Assay for Lipid Storage Modulators in Drosophila S3 Cells;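 as to cell number change: cells counted by Cell Tracker Red CMTPX staining in the red channel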
# Conditions: BODIPY lipid droplet fluorescence, 18-24 h; for cell number change: measured here: cell count max response, cells fed with added oleic acid
# Procedure, shortened: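 Drosophila S3 cells got compounds at several concentrations plus oleic acid (400 uM solution). Laser-scanning cytometry with 488 nm excitation read lipid droplets at 500-530 nm and cells at 575-640 nm. Percent activity was relative to 20 uM Triacsin C.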
# [1] = measured here: cell number channel AC50, cells fed with added oleic acid
# [2] = measured here: lipid fluorescence (Fed channel) AC50, cells fed with added oleic acid
Compound,cell number change,AC50 [1],AC50 [2]
Cn1c(=O)cc(Cl)[nH]c1=O,-47.4%,"3.66 µM [falling, full curve]","5.8 µM [falling, full curve]"
CN(CC(=O)Nc1ccc(Cl)c(C(F)(F)F)c1)C(=O)C1CC(=O)N(C2CCCC2)C1 (centres undefined),33.5%,"32.6 µM [rising, single point]","0.651 µM [rising, single point]"
COc1ccc(C2C3=C(CC(C)(C)CC3=O)Oc3ncn(CCO)c(=N)c32)cc1OC (centres undefined),,,"6.51 µM [rising, single point]"
COC(=O)[C@@H](NC(=O)O[C@@H]1C(=O)c2ccc(OC)cc2O[C@H]1c1cccc(C(F)(F)F)c1)C(C)C,-12.1%,,"10.3 µM [rising, partial curve]"
COc1cccc(CNC(=O)CN(C)S(=O)(=O)c2ccc(Br)s2)c1,-1.59%,,"29.1 µM [rising, single point]"
O=C(CSc1nc2cc(S(=O)(=O)N3CCOCC3)ccc2o1)Nc1c(F)cccc1F,37.8%,"0.13 µM [rising, partial curve]",
CC(=O)N1CCOc2ccc(S(=O)(=O)NCCc3ccc(S(N)(=O)=O)cc3)cc21,31.9%,,"29.1 µM [rising, partial curve]"
c1ccc2c(c1)nc(NCC1CCCO1)c1nnnn12 (centres undefined),9.6%,,"3.66 µM [rising, partial curve, poor fit]"
O=c1[nH]c2ccccc2c2cn(-c3ccccc3)nc12,4.62%,,
COC(=O)c1ccc(C)c(NC(=O)CCc2ccc(OC)c(OC)c2)c1,15.9%,,"2.91 µM [rising, partial curve]"
CC(C)NS(=O)(=O)c1ccc(OCC(=O)NC2CCCCCC2)cc1,-47%,"7.31 µM [falling, full curve, poor fit]",
CC1CCCCC1NC1=NCCS1 (centres undefined),,,"0.00461 µM [falling, full curve]"
CNc1ccccc1NC(=O)CCn1c(=S)oc2ccccc21,23.2%,,"6.51 µM [rising, partial curve]"
Cc1cccc(C(=O)N2CCN(C(=O)c3cccc(C)c3)C(C)C2)c1 (centres undefined),,"2.06 µM [rising, partial curve]",
CC1CCCCN1c1ncnc2ccccc12 (centres undefined),7.76%,,"6.51 µM [rising, single point]"
CC(=O)Nc1ccc2c(CSc3nnc(-c4cccnc4)n3-c3ccc(C)cc3C)cc(=O)oc2c1,66.7%,"0.00731 µM [falling, full curve, poor fit]",
Cn1c(SCC(=O)N2CCOCC2)nnc1-c1cccc(NC(=O)c2ccccc2F)c1,-17.1%,,"18.4 µM [rising, single point]"
CCOc1ccc(S(=O)(=O)N(C)CC(=O)NCc2ccc3c(c2)OCO3)cc1,10.3%,,"4.11 µM [falling, partial curve, poor fit]"
Cn1c(=Nc2ccccc2)sc2ccccc21,37.9%,"13 µM [rising, single point]","0.651 µM [falling, single point]"
COc1ccc([N+](=O)[O-])cc1NC(=S)Nc1ccccc1,,"6.51 µM [rising, single point]",
Cc1c(C(=O)NN2CCN(C)CC2)cccc1[N+](=O)[O-],10.9%,,
Cc1cc(C)nc(/N=C2\NC(=O)CC(C(=O)O)N2c2cccc(Cl)c2)n1 (centres undefined),-18.5%,,"5.17 µM [falling, full curve, poor fit]"
Cc1c(C(=O)N/N=C/c2ccc(N(C)C)cc2)[nH]c2ccc(Cl)cc12,-17.2%,,"1.3 µM [rising, full curve]"
O=c1cc(N2CCCCC2)c(-c2ccccc2)nn1Cc1c(Cl)cccc1Cl,-19%,"0.00517 µM [falling, full curve, poor fit]",
Cc1cnc(C(=O)Nc2nnc(C(C)C)s2)cn1,,"6.51 µM [falling, single point]",
CCOc1ccccc1NC(=O)CN(C)S(=O)(=O)c1cnc[nH]1,20.6%,,
COc1ccc(/C=C/C(=O)Nc2cc(C)nn2-c2nc3ccccc3[nH]2)cc1,-10.7%,,"18.4 µM [falling, single point]"
COc1cc(/C=C/C(=O)N2c3ccccc3Sc3ccc(C(F)(F)F)cc32)cc(OC)c1OC,-33.3%,"2.06 µM [falling, partial curve]",

# In a second layout: results already given
Compound | cell number change | AC50 [1] | AC50 [2]
COC(=O)c1ccc(C)c(NC(=O)CCc2ccc(OC)c(OC)c2)c1 | 15.9% |  | 2.91 µM [rising, partial curve]
CC(C)NS(=O)(=O)c1ccc(OCC(=O)NC2CCCCCC2)cc1 | -47% | 7.31 µM [falling, full curve, poor fit] | 
CC1CCCCC1NC1=NCCS1 (centres undefined) |  |  | 0.00461 µM [falling, full curve]

# Additional structures.

Compound,cell number change,AC50 [1],AC50 [2]
CN(C)S(=O)(=O)c1cc(NC(=O)COC(=O)C2COc3ccccc3O2)ccc1Cl (centres undefined),47.5%,"29.1 µM [rising, single point]","20.6 µM [rising, partial curve]"
O=C(O)C12CC3CC(C1)CC(n1ncc(NCc4ccccc4)c(Cl)c1=O)(C3)C2,,"0.461 µM [falling, single point]",
CCc1ccc(NC(=O)c2ccc3nc(N)sc3c2)cc1,7.46%,"0.411 µM [rising, full curve, poor fit]","0.92 µM [rising, full curve]"
Cc1ccc(CNC(=O)Cn2c(=O)oc3ccccc32)o1,39.8%,"18.4 µM [rising, single point]",
Cc1ccc2cccc(OCC(=O)Nc3ccc(N4CCOCC4)cc3)c2n1,,"0.366 µM [rising, partial curve]","1.84 µM [rising, partial curve]"
N#Cc1cccc(NC(=O)CCC2CCCC2)c1,-15.6%,"0.00651 µM [falling, full curve]","29.1 µM [falling, single point]"
NC(=O)NC1CCCc2c1[nH]c1ccc(Cl)cc21 (centres undefined),-20.5%,"3.26 µM [falling, single point]","6.51 µM [falling, single point]"
C#CCOCCOCCOCCNc1nc(N2CCN(C(=O)CCCCCCCCCCNC(=O)[C@H](CCCCN)n3cc(C)nn3)CC2)nc(N2CCN(C(=O)CCCCCCCCCCNC(=O)[C@@H]([C@H](C)O)n3cc(C)nn3)CC2)n1,1.12%,"0.13 µM [falling, full curve]","0.116 µM [falling, full curve, poor fit]"
Cc1ccc(NC(=S)NC(=O)/C=C/c2ccco2)c(O)c1,12.7%,"1.16 µM [rising, single point]","0.731 µM [rising, full curve]"
Cc1ccc(S(=O)(=O)N(C)CC(=O)Nc2nc3ccccc3s2)cc1,-6.83%,,"0.651 µM [rising, full curve, poor fit]"
CC1CCN(C(=O)C(C)NCc2ccc(F)cc2)CC1 (centres undefined),23.2%,,
CCOC(=O)c1sc(=S)n(Cc2ccccc2)c1C,25.6%,,"0.82 µM [rising, full curve]"
Cc1ccc(-n2ncc(C(=O)Nc3cc(Cl)ccc3Cl)c2C2CCNCC2)cc1,16%,"0.184 µM [falling, full curve, poor fit]","0.116 µM [falling, full curve, poor fit]"
O=C(CN1CCC(C(=O)O)CC1)Nc1ccccc1Oc1ccccc1,-49.1%,"4.11 µM [falling, single point]","5.17 µM [falling, single point]"
COc1ccc(NC(=O)CSc2nnc(-c3ccncc3)n2CC2CCCO2)c(OC)c1 (centres undefined),111%,"10.3 µM [rising, partial curve]","8.2 µM [rising, partial curve]"
CCN1CCN(C(=O)c2ccc(S(=O)(=O)Nc3ccccc3)cc2)CC1,8.02%,"0.00461 µM [falling, full curve, poor fit]",
CC1CCC(NC(=O)C(C)N2C(=O)C3CCCCC3C2=O)CC1 (centres undefined),-16.1%,,"0.58 µM [falling, single point]"
N#CC(c1cccc(Cl)c1)c1ccc2c(C(F)(F)F)cc(C(F)(F)F)nc2n1 (centres undefined),-183%,"11.6 µM [falling, partial curve]","5.8 µM [falling, full curve]"
CCC(=O)Nc1ccc(C(=O)n2ccc(C)n2)cc1,33.9%,"11.6 µM [rising, single point]",
N/C(=N\OC(=O)COc1ccc(Br)cc1Cl)c1cccnc1,0.57%,,"2.59 µM [rising, full curve, poor fit]"
CCCC12CN3CC(CCC)(CN(C1)C3C(O)C(O)C(O)CO)C2=O (centres undefined),151%,"29.1 µM [rising, single point]","6.51 µM [falling, single point]"
Cc1c(NC(=S)N2CCN(c3cccc(Cl)c3)CC2)c(=O)n(-c2ccccc2)n1C,-6.05%,,
Cc1ccc(NC(=S)Nc2ccc(OC(F)F)c(Cl)c2)cc1Cl,-54.1%,"29.1 µM [falling, single point]","14.6 µM [falling, partial curve, poor fit]"
COc1ccc(C(=O)CSc2nnc(-c3cc4ccccc4cc3O)n2Cc2ccco2)cc1,,,"10.3 µM [falling, partial curve, poor fit]"
Cc1ccccc1-c1nc2c(s1)CCc1onc(-c3cccc([N+](=O)[O-])c3)c1-2,-15.2%,,"0.82 µM [rising, single point]"
N#CC1=C(N)Oc2cc(N)ccc2C1C1CCCCC1 (centres undefined),-29.1%,,"29.1 µM [falling, partial curve, poor fit]"
O=C(NCCc1c[nH]c2ccccc12)c1cc([N+](=O)[O-])cc([N+](=O)[O-])c1,-37.3%,"9.2 µM [falling, partial curve]","29.1 µM [falling, single point]"
